The values below come from the supplement of paper PMC10849652.

By UniProt entry, the sequences of proteins in these tests, tags left out. Where a name states a change or a piece, a line headed by the entry shows the natural chain unless it says otherwise.
UniProt P00751, whole entry, looked up: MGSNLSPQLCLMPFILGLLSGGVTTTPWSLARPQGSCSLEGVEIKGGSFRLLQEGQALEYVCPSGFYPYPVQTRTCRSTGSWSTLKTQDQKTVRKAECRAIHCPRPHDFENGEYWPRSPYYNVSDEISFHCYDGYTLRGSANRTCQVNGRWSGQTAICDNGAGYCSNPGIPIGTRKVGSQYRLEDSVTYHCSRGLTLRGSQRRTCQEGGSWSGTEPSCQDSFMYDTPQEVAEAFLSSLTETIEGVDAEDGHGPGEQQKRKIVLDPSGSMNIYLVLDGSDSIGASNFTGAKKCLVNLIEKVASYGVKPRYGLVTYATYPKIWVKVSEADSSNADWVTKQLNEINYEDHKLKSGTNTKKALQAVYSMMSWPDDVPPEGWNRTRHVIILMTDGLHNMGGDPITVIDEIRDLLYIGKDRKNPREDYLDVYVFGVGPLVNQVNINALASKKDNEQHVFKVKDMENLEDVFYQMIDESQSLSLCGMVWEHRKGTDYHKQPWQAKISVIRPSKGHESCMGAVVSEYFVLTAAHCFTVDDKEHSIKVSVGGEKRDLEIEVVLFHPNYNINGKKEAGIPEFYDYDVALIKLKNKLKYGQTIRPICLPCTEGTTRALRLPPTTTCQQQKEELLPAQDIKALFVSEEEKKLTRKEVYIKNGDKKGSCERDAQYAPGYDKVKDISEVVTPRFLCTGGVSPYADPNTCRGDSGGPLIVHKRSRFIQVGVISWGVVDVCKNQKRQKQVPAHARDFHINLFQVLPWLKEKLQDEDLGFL
UniProt A8MT69: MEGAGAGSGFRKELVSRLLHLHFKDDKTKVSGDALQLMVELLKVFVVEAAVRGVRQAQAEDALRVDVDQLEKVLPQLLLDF
UniProt Q6ZTR5: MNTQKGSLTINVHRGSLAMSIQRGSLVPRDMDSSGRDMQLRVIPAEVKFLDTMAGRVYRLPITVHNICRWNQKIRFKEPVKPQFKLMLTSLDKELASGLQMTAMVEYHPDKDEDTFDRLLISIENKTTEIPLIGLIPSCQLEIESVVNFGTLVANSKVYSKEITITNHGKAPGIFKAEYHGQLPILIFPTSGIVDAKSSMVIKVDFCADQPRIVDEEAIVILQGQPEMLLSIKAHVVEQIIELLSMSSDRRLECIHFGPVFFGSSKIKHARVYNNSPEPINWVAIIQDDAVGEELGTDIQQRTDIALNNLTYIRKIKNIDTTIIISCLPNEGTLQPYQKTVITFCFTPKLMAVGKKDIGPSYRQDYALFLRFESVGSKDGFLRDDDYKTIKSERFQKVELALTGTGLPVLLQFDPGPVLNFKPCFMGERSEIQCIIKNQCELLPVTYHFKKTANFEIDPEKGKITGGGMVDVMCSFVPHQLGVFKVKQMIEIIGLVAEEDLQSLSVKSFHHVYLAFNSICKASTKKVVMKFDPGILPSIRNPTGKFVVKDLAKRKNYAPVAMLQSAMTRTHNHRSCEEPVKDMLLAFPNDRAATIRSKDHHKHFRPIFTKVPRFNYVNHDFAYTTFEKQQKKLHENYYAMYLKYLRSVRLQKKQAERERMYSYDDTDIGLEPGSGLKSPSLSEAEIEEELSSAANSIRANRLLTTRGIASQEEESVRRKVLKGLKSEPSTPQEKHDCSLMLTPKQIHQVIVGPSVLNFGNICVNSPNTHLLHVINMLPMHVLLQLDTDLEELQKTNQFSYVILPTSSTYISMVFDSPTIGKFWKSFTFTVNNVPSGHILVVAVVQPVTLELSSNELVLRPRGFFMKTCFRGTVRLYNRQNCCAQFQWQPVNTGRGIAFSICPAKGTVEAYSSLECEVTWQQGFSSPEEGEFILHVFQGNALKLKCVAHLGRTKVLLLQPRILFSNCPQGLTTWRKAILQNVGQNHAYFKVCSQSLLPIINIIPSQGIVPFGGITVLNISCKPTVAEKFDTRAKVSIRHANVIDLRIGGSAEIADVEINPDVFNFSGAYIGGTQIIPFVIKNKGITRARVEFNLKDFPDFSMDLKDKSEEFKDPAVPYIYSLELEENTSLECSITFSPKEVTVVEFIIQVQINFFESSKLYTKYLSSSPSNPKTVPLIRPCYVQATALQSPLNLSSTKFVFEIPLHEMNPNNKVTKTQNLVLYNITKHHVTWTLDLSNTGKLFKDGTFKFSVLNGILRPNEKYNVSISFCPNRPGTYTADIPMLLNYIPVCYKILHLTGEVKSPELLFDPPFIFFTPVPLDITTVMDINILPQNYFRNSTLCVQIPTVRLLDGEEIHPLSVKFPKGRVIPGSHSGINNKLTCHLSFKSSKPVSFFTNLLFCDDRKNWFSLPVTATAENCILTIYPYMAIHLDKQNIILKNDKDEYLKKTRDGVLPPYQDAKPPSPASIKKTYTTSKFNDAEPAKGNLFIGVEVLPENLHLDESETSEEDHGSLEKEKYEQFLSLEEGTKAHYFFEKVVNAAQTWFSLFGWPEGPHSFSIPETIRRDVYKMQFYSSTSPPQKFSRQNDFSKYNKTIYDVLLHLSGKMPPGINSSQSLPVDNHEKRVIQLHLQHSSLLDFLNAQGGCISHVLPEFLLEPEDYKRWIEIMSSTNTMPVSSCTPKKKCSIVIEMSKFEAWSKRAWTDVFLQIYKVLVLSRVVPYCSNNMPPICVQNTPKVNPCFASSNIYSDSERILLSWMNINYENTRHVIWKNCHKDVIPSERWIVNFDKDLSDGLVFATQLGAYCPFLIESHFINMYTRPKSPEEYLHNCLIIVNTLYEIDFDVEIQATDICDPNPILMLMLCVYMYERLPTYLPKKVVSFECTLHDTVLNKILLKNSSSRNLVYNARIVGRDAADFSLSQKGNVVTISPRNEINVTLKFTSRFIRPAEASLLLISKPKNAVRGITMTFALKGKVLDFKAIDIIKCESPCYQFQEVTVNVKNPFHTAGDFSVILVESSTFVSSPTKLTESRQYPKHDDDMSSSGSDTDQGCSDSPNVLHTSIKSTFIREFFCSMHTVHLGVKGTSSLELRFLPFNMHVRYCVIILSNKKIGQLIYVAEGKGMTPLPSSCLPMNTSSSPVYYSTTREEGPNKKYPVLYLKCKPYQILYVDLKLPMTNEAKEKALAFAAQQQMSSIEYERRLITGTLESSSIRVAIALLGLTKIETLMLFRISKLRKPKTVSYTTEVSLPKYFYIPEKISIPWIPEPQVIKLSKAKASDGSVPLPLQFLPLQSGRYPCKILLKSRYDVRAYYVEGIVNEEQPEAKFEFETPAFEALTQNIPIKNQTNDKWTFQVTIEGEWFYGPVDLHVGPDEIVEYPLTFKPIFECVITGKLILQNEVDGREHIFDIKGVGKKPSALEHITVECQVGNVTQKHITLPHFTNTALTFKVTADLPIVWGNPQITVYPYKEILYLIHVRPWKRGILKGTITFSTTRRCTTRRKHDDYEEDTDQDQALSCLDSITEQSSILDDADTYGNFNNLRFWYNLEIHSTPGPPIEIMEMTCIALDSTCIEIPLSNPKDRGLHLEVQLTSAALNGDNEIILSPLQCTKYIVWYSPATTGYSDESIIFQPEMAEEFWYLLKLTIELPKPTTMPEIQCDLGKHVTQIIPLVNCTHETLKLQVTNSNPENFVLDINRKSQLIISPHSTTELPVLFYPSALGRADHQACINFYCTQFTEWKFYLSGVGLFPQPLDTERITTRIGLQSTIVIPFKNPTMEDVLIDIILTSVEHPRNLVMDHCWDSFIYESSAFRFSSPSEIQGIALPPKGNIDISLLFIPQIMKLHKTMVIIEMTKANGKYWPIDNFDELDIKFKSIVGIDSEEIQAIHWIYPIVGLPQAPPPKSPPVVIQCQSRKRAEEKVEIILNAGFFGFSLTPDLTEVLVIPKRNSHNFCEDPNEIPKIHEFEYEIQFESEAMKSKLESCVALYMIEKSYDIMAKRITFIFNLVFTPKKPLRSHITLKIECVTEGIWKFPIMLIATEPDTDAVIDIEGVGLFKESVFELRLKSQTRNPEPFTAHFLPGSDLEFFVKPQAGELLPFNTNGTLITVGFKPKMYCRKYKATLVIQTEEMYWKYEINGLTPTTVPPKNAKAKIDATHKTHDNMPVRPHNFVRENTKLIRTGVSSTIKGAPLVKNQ
UniProt Q66GS9: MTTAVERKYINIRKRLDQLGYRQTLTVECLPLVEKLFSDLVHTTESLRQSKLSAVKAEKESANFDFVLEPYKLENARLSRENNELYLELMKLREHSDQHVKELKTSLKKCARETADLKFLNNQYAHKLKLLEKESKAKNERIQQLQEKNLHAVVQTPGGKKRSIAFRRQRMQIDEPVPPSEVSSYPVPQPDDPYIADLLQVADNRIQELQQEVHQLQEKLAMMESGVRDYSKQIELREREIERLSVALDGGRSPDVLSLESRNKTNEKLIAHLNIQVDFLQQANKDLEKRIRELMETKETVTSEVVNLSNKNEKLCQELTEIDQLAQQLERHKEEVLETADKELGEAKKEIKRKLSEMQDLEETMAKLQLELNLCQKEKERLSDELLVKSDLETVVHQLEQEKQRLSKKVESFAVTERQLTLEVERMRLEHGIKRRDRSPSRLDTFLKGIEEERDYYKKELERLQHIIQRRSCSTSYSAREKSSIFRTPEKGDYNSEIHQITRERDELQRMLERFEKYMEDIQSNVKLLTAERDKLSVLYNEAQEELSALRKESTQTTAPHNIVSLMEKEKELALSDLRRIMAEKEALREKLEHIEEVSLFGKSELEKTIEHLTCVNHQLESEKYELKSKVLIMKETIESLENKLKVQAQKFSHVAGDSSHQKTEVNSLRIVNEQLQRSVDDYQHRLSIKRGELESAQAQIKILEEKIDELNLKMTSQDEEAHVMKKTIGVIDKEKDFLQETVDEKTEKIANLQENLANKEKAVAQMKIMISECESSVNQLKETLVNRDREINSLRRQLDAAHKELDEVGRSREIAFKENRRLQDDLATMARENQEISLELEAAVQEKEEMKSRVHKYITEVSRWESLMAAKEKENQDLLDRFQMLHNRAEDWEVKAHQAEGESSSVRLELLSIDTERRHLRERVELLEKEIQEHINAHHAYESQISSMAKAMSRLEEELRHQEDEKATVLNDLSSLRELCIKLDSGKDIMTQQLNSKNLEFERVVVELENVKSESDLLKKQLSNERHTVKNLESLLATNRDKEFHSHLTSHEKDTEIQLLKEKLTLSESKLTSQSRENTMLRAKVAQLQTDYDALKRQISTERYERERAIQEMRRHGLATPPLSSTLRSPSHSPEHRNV
UniProt Q15517: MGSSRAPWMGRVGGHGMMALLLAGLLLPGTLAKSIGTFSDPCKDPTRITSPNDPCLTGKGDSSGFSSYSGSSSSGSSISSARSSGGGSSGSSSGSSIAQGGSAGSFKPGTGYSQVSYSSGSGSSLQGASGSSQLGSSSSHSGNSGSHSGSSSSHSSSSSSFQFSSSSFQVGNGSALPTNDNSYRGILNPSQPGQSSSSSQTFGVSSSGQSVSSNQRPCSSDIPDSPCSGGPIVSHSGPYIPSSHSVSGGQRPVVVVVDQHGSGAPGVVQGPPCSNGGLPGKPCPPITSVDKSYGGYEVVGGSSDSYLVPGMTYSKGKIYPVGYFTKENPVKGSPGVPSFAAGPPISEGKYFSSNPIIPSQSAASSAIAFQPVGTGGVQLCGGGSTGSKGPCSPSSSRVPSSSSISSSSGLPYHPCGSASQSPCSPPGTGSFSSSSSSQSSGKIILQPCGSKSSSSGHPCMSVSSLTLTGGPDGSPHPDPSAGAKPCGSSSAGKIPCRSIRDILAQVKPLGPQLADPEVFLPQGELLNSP
UniProt O75419: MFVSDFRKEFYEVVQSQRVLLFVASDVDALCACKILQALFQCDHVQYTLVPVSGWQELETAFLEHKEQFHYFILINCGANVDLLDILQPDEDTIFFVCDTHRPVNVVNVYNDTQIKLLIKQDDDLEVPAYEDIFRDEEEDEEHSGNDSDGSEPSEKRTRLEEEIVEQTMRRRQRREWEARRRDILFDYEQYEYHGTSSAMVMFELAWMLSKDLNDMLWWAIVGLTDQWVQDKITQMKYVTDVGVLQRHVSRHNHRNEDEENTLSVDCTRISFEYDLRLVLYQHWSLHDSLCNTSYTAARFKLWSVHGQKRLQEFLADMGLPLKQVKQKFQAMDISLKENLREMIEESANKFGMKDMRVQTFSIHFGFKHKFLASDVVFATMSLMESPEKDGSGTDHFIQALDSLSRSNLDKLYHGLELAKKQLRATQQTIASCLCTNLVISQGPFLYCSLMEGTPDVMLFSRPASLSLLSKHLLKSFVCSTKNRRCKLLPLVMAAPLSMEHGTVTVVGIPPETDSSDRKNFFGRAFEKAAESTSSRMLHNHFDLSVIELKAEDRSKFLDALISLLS
UniProt P49918: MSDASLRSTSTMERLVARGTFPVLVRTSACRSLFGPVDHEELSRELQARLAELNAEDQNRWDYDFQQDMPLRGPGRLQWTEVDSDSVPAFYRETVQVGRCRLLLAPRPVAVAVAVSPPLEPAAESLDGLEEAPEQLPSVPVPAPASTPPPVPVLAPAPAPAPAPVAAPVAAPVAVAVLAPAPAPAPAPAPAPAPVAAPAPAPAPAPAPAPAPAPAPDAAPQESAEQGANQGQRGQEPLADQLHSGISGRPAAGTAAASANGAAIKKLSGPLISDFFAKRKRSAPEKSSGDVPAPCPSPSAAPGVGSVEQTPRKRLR

Some of the results follow.

Compound in the first experiment: C1=CC(=CC=C1C2=NC3=C(N2)C=C(C=C3)C(=O)N)OC4=CC=C(C=C4)Cl
Kind of experiment: log2 fold change, soluble protein after heating vs DMSO (PISA); higher = thermal stabilisation; K562 cells, 10 uM, 30 min; active = over 0.2 and 3.5 SD of the protein, either way, in both replicates (recomputed). An outline of the steps:
(§1)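 Soluble protein was quantified by TMTpro 16plex LC-MS/MS after channel sums were equalised. It was obtained as the supernatant after 21,000xg for 90 min from pooled aliquots of K562 cells (2×10^6 cells/mL, 10 μM compound, 30 min) heated for 3 min across 48°C-58°C and extracted in PBS with 0.5% NP-40 at 4°C. Thermal stability values are relative to control samples and come from duplicates. They are given as log2 fold changes.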
Take CENPP (UniProt Q6IPU0): the log2 fold change is inactive: -0.039.

For CEP41 (UniProt Q9BYV8), the log2 fold change was inactive: 0.127.

Take CDC42EP2 (UniProt O14613): the log2 fold change was inactive: 0.082.

With CFB (UniProt P00751), the log2 fold change was inactive: 0.078.

In the case of CFL1 (UniProt E9PP50), the log2 fold change was inactive: -0.151.

As to CEP250 (UniProt Q9BV73), the log2 fold change is inactive: 0.042.

For CEP152 (UniProt O94986), the log2 fold change is inactive: 0.061.

As for CHCHD5 (UniProt Q9BSY4), the log2 fold change was inactive: 0.115.

For CENPM (UniProt Q9NSP4), the log2 fold change is inactive: 0.152.

For the target CDC42EP4 (UniProt Q9H3Q1), the log2 fold change was inactive: 0.014.

CEP170 isoform 3 (UniProt Q5SW79): the log2 fold change is inactive: 0.026.

For CDC42BPG (UniProt Q6DT37), the log2 fold change is inactive: -0.079.

On to CENPX (UniProt A8MT69), for which the log2 fold change is inactive: -0.099.

Regarding CENPK (UniProt Q9BS16), the log2 fold change is inactive: 0.026.

As to CENPQ (UniProt Q7L2Z9), the log2 fold change is inactive: -0.124.

Compound in another experiment: C1=CC2=C(C=CC(=C2)/C=C\3/C(=O)NC(=NCC4=CC=CS4)S3)N=C1
Described as above. A digest of the protocol: as §1
For the target CFAP47 (UniProt Q6ZTR5), the log2 fold change is inactive: 0.355.

CHMP2A (UniProt M0R1T5): the log2 fold change is inactive: -0.258.

Regarding CEBPG (UniProt P53567), the log2 fold change is inactive: 0.022.

CEP135 (UniProt Q66GS9): the log2 fold change is inactive: -0.205.

Take CEP170B (UniProt Q9Y4F5): the log2 fold change was inactive: 0.01.

CEP85 (UniProt Q6P2H3): the log2 fold change was inactive: 0.085.

In the case of CEP120 (UniProt Q8N960), the log2 fold change is inactive: 0.24.

CEP128 (UniProt Q6ZU80): the log2 fold change is inactive: 0.199.

As for CEP350 (UniProt Q5VT06), the log2 fold change was inactive: 0.06.

Regarding CDSN (UniProt Q15517), the log2 fold change was inactive: 0.377.

For CHD1 (UniProt O14646), the log2 fold change was inactive: 0.042.

As to CDC45 isoform 3 (UniProt O75419), the log2 fold change was inactive: -0.099.

Compound in the next experiment: C1=CC2=NC=CN=C2C=C1/C=C/3\C(=O)NC(=O)S3
The description is as above. An outline of the steps: as §1
For CFAP47 (UniProt Q6ZTR5), the log2 fold change is inactive: -0.123.

In the case of CEP135 (UniProt Q66GS9), the log2 fold change is inactive: 0.097.

With CENPP (UniProt Q6IPU0), the log2 fold change is inactive: -0.069.

CDK5RAP2 (UniProt Q96SN8): the log2 fold change was inactive: -0.06.

Regarding CHD8 (UniProt Q9HCK8), the log2 fold change was inactive: 0.12.

Turning to CDC42EP2 (UniProt O14613), the log2 fold change is inactive: 0.008.

For the target CEP170B (UniProt Q9Y4F5), the log2 fold change is inactive: -0.206.

For the target CEP83 (UniProt Q9Y592), the log2 fold change is inactive: -0.003.

Turning to CEP85 (UniProt Q6P2H3), the log2 fold change is inactive: -0.117.

For CFB (UniProt P00751), the log2 fold change was inactive: -0.088.

Consider CEP250 (UniProt Q9BV73), for which the log2 fold change is inactive: -0.036.

For CEP152 (UniProt O94986), the log2 fold change is inactive: -0.015.

On to CHCHD5 (UniProt Q9BSY4), for which the log2 fold change is inactive: 0.086.

Regarding CEP120 (UniProt Q8N960), the log2 fold change is inactive: 0.006.

CEP128 (UniProt Q6ZU80): the log2 fold change is inactive: 0.158.

Take CDSN (UniProt Q15517): the log2 fold change is inactive: -0.362.

With CDC42EP4 (UniProt Q9H3Q1), the log2 fold change was inactive: 0.043.

Turning to CEP170 isoform 3 (UniProt Q5SW79), the log2 fold change is inactive: -0.344.

With CDKN1C (UniProt P49918), the log2 fold change was inactive: -0.063.

On to CENPK (UniProt Q9BS16), for which the log2 fold change is inactive: -0.079.
